Assay results taken from patent US8734776B2 (ZymoGenetics, Inc., priority 2003, dated 2014).
Some of these results come from one statement about several compounds together.

Test system: HSV-2
Test: HSV-2 CPE inhibition assay in Vero cells

B1: IL-28A: human IL-28A, previously designated zcyto20, SEQ ID NO:2 (protein, listed as Homo sapiens)
chain: MKLDMTGDCTPVLVLMAAVLTVTGAVPVARLHGALPDARGCHIAQFKSLSPQELQAFKRAKDALEESLLLKDCRCHSRLFPRTWDLRQLQVRERPMALEAELALTLKVLEATADTDPALVDVLDQPLHTLHHILSQFRACIQPQPTAGPRTRGRLHHWLYRLQEAPKKESPGCLEASVTFNLFRLLTRDLNCVASGDLCV
modifications: SIGNAL (1)...(25)
  IC50 inhibition of cell death: > 10 µg/mL

B2: IL-29: human IL-29, previously designated zcyto21, SEQ ID NO:4 (protein, listed as Homo sapiens)
chain: MAAAWTVVLVTLVLGLAVAGPVPTSKPTTTGKGCHIGRFKSLSPQELASFKKARDALEESLKLKNWSCSSPVFPGNWDLRLLQVRERPVALEAELALTLKVLEAAAGPALEDVLDQPLHTLHHILSQLQACIQPQPTAGPRPRGRLHHWLHRLQEAPKKESAGCLEASVTFNLFRLLTRDLKYVADGNLCLRTSTHPEST
modifications: SIGNAL (1)...(19)
  IC50 inhibition of cell death: > 10 µg/mL
